For 17 compounds, cell number change and AC50 results are on record in PubChem BioAssay AID2685 (National Center for Advancing Translational Sciences (NCATS), 2010).

As a reminder, the AC50 is the concentration giving half of the maximal activity seen. The low end stands for greater potency, the high end for weaker potency.

The nature of the assay: qHTS Assay for Lipid Storage Modulators in Drosophila S3 Cells.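 On cell number change: cells counted by Cell Tracker Red CMTPX staining in the red channel.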 Conditions: BODIPY lipid droplet fluorescence, 18-24 h; for cell number change: measured here: cell count max response, cells fed with added oleic acid. An outline of the steps:
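Drosophila S3 cells got compounds at several concentrations plus oleic acid (400 uM solution). Laser-scanning cytometry with 488 nm excitation read lipid droplets at 500-530 nm and cells at 575-640 nm. Percent activity was relative to 20 uM Triacsin C.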

The mark [1] stands for this setting: measured here: lipid fluorescence (Fed channel) AC50, cells fed with added oleic acid.
[2] abbreviates: measured here: cell number channel AC50, cells fed with added oleic acid.

The list shows a part of the results. Further columns of the screen follow, without active or inactive calls. Compounds called inactive in the main read-out are mostly missing here. Words in brackets tell the shape of the fitted curve; partial curves, single points and poor fits give uncertain potencies.

Take `CC(C)[C@H](N)c1nnc(SC/C=C/c2ccccc2)o1`: the cell number change turned out to be 18%. In addition, under setting [1], the half-maximal activity concentration (AC50) was 2.06 µM [rising, partial curve]. Take `CCOc1ccccc1-c1cc(C(=O)Nc2ccc(C(=O)O)cc2)c2ccccc2n1`: the cell number change is -1.18%. For the same compound, the concentration at half-maximal activity (AC50) under setting [1] is 0.82 µM [falling, single point].

For `OCC[C@@H]1C[C@H](O)[C@@H](O)[C@]2(OCc3ccccc32)O1`, the cell number change is -1.5%. On to `CCC1CCCCN1S(=O)(=O)c1ccc(S(=O)(=O)N2CCN(S(=O)(=O)CC)CC2)cc1` (configuration not stated), for which the cell number change is -50.8%. Moreover, under setting [2], the AC50 was 16.4 µM [falling, single point]. For `COCCNC(=O)/C(C#N)=C/c1ccc(O)cc1`, the cell number change is 7.3%. The AC50 under setting [1] is 0.0058 µM [rising, full curve, poor fit]. Consider `COc1ccc(NC(=S)NCCCN2CCOCC2)cc1`, for which the cell number change is -53.8%. Moreover, the AC50 under setting [2] was 29.1 µM [falling, single point]. Also, the AC50 under setting [1] was 16.4 µM [falling, partial curve]. Regarding `COCCn1c(=O)[nH]c2cc(C(=O)Nc3cccc(F)c3)ccc2c1=O`, the cell number change was -3.01%. Also, the AC50 under setting [1] is 0.00461 µM [falling, full curve, poor fit]. Consider `Cc1ccc(-c2onc3ccc(C=O)cc23)cc1`, for which the AC50 is 4.11 µM [rising, single point] under setting [2] and 6.51 µM [rising, single point] under setting [1]. Turning to `NC(=O)C1CCCN(C(=O)c2cccc(NC(=O)c3cccs3)c2)C1` (configuration not stated), the cell number change is 10.4%. On to `O=C(NC(c1cccnc1)C(F)(F)F)c1cc(COc2ccc3c(c2)CCCC3)on1` (configuration not stated), for which the cell number change is -2.59%. The AC50 under setting [1] was 5.17 µM [falling, single point]. Take `Cc1ncc([N+](=O)[O-])n1CC(=O)N/N=C/c1ccccc1F`: the AC50 under setting [2] is 6.51 µM [rising, single point]. With `COCCNC(=O)C12CC3CC(C1)CC(c1ccccc1)(C3)C2`, the cell number change was -35.9%. For the compound `CCOC(=O)N1CCC(NC(=O)c2cc(COc3c(C)cccc3C)on2)CC1`, the cell number change is -2.83%. For the same compound, the AC50 under setting [2] is 0.13 µM [rising, full curve, poor fit]. As to `O=C(Nc1cccc(/C=C/c2ccccn2)c1)c1cc(Cl)ccn1`, the cell number change is -26.2%. The AC50 under setting [2] is 0.13 µM [falling, full curve, poor fit].

As for `CCNC(=O)N1CCC(n2nccc2NC(=O)CCCc2ccccc2)CC1`, the cell number change stood at 4.47%. The AC50 under setting [1] is 13 µM [rising, partial curve, poor fit].

For `C#CCN1C(C)=C(C(=O)OC)C(c2cccc([N+](=O)[O-])c2)C(C(=O)OCC)=C1C` (configuration not stated), the cell number change worked out at 56.5%. Besides, the AC50 under setting [2] is 29.1 µM [rising, single point]. Take `O=C(NCCN1CCOCC1)c1cc(-c2ccc(Cl)c(Cl)c2)on1`: the cell number change was found to be 22.2%. Under setting [2], the AC50 was 0.82 µM [rising, full curve, poor fit]. The AC50 under setting [1] was 29.1 µM [rising, single point].
